{"source": "patent EP2185126B1", "about": "“USE OF TROXERUTIN TO QUENCH THE FLUORESCENCE OF DISODIUM PHENYL DIBENZIMIDAZOLE TETRASULFONATE” (Symrise AG, priority 2007, dated 2007)", "data": [{"test": "Quenching of fluorescence of disodium phenyl dibenzimidazole tetrasulfonate (no method given)", "values": [{"smiles": "COc1ccc([C@@H]2CC(=O)c3c(O)cc(O[C@@H]4O[C@H](CO[C@@H]5O[C@@H](C)[C@H](O)[C@@H](O)[C@H]5O)[C@@H](O)[C@H](O)[C@H]4O)cc3O2)cc1O", "note": "[hesperidin]", "quenching of the fluorescence of disodium phenyl dibenzimidazole tetrasulfonate": "do not effectively quench"}, {"smiles": "C[C@@H]1O[C@@H](O[C@H]2[C@H](Oc3cc(O)c4c(c3)O[C@H](c3ccc(O)cc3)CC4=O)O[C@H](CO)[C@@H](O)[C@@H]2O)[C@H](O)[C@H](O)[C@H]1O", "note": "[naringin]", "quenching of the fluorescence of disodium phenyl dibenzimidazole tetrasulfonate": "do not effectively quench"}, {"smiles": "O=c1c(O)c(-c2ccc(O)c(O)c2)oc2cc(O)cc(O)c12", "note": "[quercetin]", "quenching of the fluorescence of disodium phenyl dibenzimidazole tetrasulfonate": "effective quenchers"}, {"smiles": "C[C@@H]1O[C@@H](OC[C@H]2O[C@@H](Oc3c(-c4ccc(OCCO)c(OCCO)c4)oc4cc(OCCO)cc(O)c4c3=O)[C@H](O)[C@@H](O)[C@@H]2O)[C@H](O)[C@H](O)[C@H]1O", "note": "[troxerutin, 7,3',4'-tris[O-(2-hydroxyethyl)]rutin]", "quenching of the fluorescence of disodium phenyl dibenzimidazole tetrasulfonate": "effective quencher"}]}]}
